Measured values as given in patent US20080009448A1, “Peptide Derivative” (priority 2006, published 2008).

Assays:
[1] = system: MSU induced knee osteoarthritis pain; experiment: MSU induced knee osteoarthritis pain model, hind leg paw-pressure ratio; format: in vivo; details: rat, oral, range in parentheses, read-out: ED50 of AUCs
Method: (§1) Experimental animal, male SD type rats, weighing the body weight in the range of 170 to 190 g, were used for the studies. The animals had been kept under constant conditions (room temperature 23±1° C., humidity 52±2%, 12 hours light-and-dark cycle having light time 7:00 to 19:00 and dark time 19:00 to 7:00) until used for an experiment. The animals were fed the mouse solid diet (F2, Funabashi farm. Funabashi, Japan) with unrestricted tap water intake, and kept in captivity for at least more than two days in a laboratory.
Any test drugs were dissolved in Ringer's solution (Fuso Yakuhin) to be used. […]
Pressures to both hind leg paw were measured using a paw-pressure measurement apparatus and recorded. […] Calculated paw-pressure ratio (ppr) is a value calculated by dividing the pressure on the left hind leg by the pressure on the right hind leg according to the measured pressures on both hind legs.
The anti-nociceptive effect was evaluated quantitatively by calculating % MPE (% of maximum possible effect) according to the following formula. […]
In the formula, ppr 0 and ppr 1 are respective paw-pressure ratios on both hind legs before and after administration. ED50 value of anti-nociceptive activity was calculated using GraphPad Prism data-graph processing software version 4.0, San Diego, Calif., USA. […]

[2] = system: inflammatory pain model; experiment: Rheumatoid arthritis / inflammatory pain model (CFA), Von Frey filament method; format: in vivo, mouse; details: for total AUC value / unit-time AUC value: 100 mg/Kg orally
Method: as §1, with “ddy” for “SD”, “mice (Nihon SLC),” for “rats,”, “15” for “170”, “20” for “190”
A mouse was firmly fixed without anesthesia and 25 μL of Complete Freund's Adjuvant (CFA) using a number 30 guage needle (Termo) was subcutaneously administered into the dorsum of left hind foot to provide an inflammatory pain model. The model was kept under the conditions noted above until used for the test.
Measurement of anti-nociceptive activity on the inflammatory pain model was conducted according to Von Fray filament method as well as on never damaged model 5 days after CFA administration. The drugs were orally administered.
The anti-nociceptive activity is represented as a unit AUC value (AUC/min) which is the total AUC value or AUC divided by the measurement time and compared to study. ED50 of the anti-nociceptive activity was calculated by reducing the measurement value to a percentage of the upper limit which was set as 2.0 for the unit AUC.

CN1CC[C@]23c4c5ccc(O)c4O[C@H]2[C@@H](O)C=C[C@H]3[C@H]1C5 [Morphine]
ED50 [1]: 86.4 mg/kg
total AUC value ([2]; CFA administered foot): 328
unit-time AUC value ([2]; CFA administered foot): 0.910 AUC/min
total AUC value ([2]; CFA non-administered foot): 556
unit-time AUC value ([2]; CFA non-administered foot): 1.545 AUC/min
total AUC value and unit-time AUC value of the CFA administered foot as part of those of the CFA non-administered foot ([2]; mice, CFA model, oral): approximately 60%
